From US20120021973A1 (priority 2008, published 2012)

Assay: general procedure: Fmoc solid-phase peptide synthesis; Fmoc-Rink amide AM resin (0.71 mmol/g, Novabiochem); HBTU/HOBt/DIPEA
Conditions: TFA salt; for isolated mass / isolated yield: whole synthesis
[1] = scale of the general procedure 0.25 mmol or 1.0 mmol

Work on “(2-{2-[2-(2-{2-[16-(tetrazol-5-yl)hexadecanoylamino]ethoxy}ethoxy)acetylamino]ethoxy}ethoxy)acetyl-Gly-D-Ser-Gln-Ser-Ser-Gln-His-Lys-Nle-c[Glu-Hyp-D-Phe-Arg-Trp-Lys]-NH2” yielded an isolated mass (scale 0.25 mmol) of 50 mg and an isolated yield (scale 0.25 mmol) of 8%.

“(2-{2-[16-(Tetrazol-5-yl)hexadecanoylamino]ethoxy}ethoxy)acetyl-Gly-Ser-Gln-His-Lys(BCMA)-Nle-c[Glu-Hyp-D-Phe-Arg-Trp-Lys]-NH2” gave an isolated yield (nitrogen-specific HPLC detector, scale 0.25 mmol) of 13% and an isolated mass (scale 0.25 mmol) of 72 mg.

“(2-{2-[16-(Tetrazol-5-yl)hexadecanoylamino]ethoxy}ethoxy)acetyl-Gly-Ser-Gln-Ser-Dap(BCMA)-Nle-c[Glu-Hyp-D-Phe-Arg-Trp-Lys]-NH2” showed an isolated mass of 56 mg and an isolated yield [1] of 11%.

“(2-{2-[16-(Tetrazol-5-yl)hexadecanoylamino]ethoxy}ethoxy)acetyl-Gly-Ser-Gln-Ser-Lys(biscarboxymethyl)-Nle-c[Glu-Hyp-D-Phe-Arg-Trp-Lys]-NH2” showed an isolated mass of 45 mg and an isolated yield [1] of 9%.

Substance “[2-{2-[16-(tetrazol-5-yl)hexadecanoylamino]ethoxy}ethoxy]acetyl-Gly-Ser-Gln-His-β-Dap-Nle-c[Glu-Hyp-D-Phe-Arg-Trp-Lys]-NH2” has a step yield (late stage modification step) of 13%.
